One test deals with Flag-RIP3 (UniProt Q9Y572). Put plainly: co-IP; HEK293T transiently transfected, 24 h, with or without TNFα (10 ng/ml) for the indicated time; IP with anti-Flag, 4 h at 4°C; IP lysis buffer (150 mM NaCl, 20 mM tris-HCl pH 7.5, 0.5% Triton X-100, 0.5% NP-40); Western blot. Background: Immunoblotting shows a protein as a band on a membrane.
Another test deals with Flag-RIP1 (UniProt Q13546). The description is as above.
The target of test [1] is caspase 8, endogenous in HT29 (human (endogenous in HT29)) (UniProt Q14790). In words: co-IP; cells treated with TNFα plus Smac mimetic (T/S); IP with anti-caspase 8 to isolate complex IIa; HT29 HSPA13+/+ or HSPA13−/− (Fig. 3E), semi-endogenous with Flag-HSPA13 (fig. S1D).

Protein sequences, listed by entry. Tags and fused reporters are not part of them.
UniProt Q9Y572: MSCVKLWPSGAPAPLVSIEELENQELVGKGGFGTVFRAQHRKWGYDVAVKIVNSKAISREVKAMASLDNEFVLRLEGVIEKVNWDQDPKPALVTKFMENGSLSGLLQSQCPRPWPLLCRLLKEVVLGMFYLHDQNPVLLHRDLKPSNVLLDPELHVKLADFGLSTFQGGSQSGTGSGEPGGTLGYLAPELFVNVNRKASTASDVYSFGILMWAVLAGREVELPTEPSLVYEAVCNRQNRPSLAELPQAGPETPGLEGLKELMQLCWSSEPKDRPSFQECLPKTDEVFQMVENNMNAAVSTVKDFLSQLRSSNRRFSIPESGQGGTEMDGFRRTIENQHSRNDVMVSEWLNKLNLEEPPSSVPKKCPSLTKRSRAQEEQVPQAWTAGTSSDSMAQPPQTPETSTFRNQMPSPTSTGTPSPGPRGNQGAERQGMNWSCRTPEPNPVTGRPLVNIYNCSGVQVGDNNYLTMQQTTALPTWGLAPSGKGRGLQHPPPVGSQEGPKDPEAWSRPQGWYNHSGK
UniProt Q13546: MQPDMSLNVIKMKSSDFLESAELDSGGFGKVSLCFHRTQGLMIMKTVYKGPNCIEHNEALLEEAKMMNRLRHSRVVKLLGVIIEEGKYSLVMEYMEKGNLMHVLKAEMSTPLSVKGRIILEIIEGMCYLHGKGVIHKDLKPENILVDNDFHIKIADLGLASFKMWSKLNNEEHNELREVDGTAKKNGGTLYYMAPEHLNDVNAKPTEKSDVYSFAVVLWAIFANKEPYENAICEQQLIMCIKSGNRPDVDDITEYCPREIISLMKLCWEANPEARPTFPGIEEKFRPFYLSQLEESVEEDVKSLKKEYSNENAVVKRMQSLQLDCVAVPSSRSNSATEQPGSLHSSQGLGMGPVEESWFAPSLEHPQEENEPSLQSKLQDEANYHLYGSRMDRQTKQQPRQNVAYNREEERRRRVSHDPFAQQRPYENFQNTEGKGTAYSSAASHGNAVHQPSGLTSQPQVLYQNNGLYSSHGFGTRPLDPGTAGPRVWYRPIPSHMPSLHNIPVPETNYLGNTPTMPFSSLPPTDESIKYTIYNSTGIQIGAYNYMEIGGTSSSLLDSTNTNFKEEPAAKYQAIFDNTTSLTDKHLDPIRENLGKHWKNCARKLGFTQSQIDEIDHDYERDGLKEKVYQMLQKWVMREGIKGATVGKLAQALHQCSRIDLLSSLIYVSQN
UniProt Q14790: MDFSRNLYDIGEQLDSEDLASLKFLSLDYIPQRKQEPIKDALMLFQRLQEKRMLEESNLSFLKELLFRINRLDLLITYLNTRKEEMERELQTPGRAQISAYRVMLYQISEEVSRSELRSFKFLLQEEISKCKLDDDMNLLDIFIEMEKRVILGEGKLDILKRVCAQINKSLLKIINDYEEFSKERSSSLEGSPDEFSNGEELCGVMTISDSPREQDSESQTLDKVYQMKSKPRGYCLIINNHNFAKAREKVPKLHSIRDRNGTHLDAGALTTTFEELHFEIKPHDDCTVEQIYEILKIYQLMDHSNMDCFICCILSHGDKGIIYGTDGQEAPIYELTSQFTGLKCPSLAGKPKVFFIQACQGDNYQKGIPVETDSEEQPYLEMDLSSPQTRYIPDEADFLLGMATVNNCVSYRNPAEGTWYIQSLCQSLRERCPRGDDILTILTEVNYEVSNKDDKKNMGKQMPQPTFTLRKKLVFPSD

No constants are given. Whether binding was seen depends on the method and setting. Binding seen in cells or lysates may run through a third protein. Some binding calls cover weakened binding; strength is not graded here. Tags and fused reporters may be left off the sequences shown.

B1: Myc-HSPA13 (protein, UniProt P48723 23-471)
chain: QQYLPLPTPKVIGIDLGTTYCSVGVFFPGTGKVKVIPDENGHISIPSMVSFTDNDVYVGYESVELADSNPQNTIYDAKRFIGKIFTAEELEAEIGRYPFKVLNKNGMVEFSVTSNETITVSPEYVGSRLLLKLKEMAEAYLGMPVANAVISVPAEFDLKQRNSTIEAANLAGLKILRVINEPTAAAMAYGLHKADVFHVLVIDLGGGTLDVSLLNKQGGMFLTRAMSGNNKLGGQDFNQRLLQYLYKQIYQTYGFVPSRKEEIHRLRQAVEMVKLNLTLHQSAQLSVLLTVEEQDRKEPHSSDTELPKDKLSSADDHRVNSGFGRGLSDKKSGESQVLFETEISRKLFDTLNEDLFQKILVPIQQVLKEGHLEKTEIDEVVLVGGSTRIPRIRQVIQEFFGKDPNTSVDPDLAVVTGVAIQAGIDGGSWPLQVSALEIPNKHLQKTNFN
As for B1, the binding result with Flag-RIP3 is on record as “no binding”; with Flag-RIP1, “binds”.

B2: Flag-HSPA13 (HT29, stable) (protein, UniProt P48723 23-471)
chain: QQYLPLPTPKVIGIDLGTTYCSVGVFFPGTGKVKVIPDENGHISIPSMVSFTDNDVYVGYESVELADSNPQNTIYDAKRFIGKIFTAEELEAEIGRYPFKVLNKNGMVEFSVTSNETITVSPEYVGSRLLLKLKEMAEAYLGMPVANAVISVPAEFDLKQRNSTIEAANLAGLKILRVINEPTAAAMAYGLHKADVFHVLVIDLGGGTLDVSLLNKQGGMFLTRAMSGNNKLGGQDFNQRLLQYLYKQIYQTYGFVPSRKEEIHRLRQAVEMVKLNLTLHQSAQLSVLLTVEEQDRKEPHSSDTELPKDKLSSADDHRVNSGFGRGLSDKKSGESQVLFETEISRKLFDTLNEDLFQKILVPIQQVLKEGHLEKTEIDEVVLVGGSTRIPRIRQVIQEFFGKDPNTSVDPDLAVVTGVAIQAGIDGGSWPLQVSALEIPNKHLQKTNFN
As for B2, the binding entry in test [1] is “no binding”.

Values taken from publication PMC8494447.
